From patent publication US4716165A, “Histamine H1 antagonists” (American Home Products Corporation, priority 1986, dated 1987)
At least one compound was matched to its structure with a doubt left.

Tested on: histamine H1
Assay: H1-blocking activity, histamine-induced contractile response in isolated guinea pig ileum

Structure (SMILES) | inhibition of the contractile response (histamine-induced, test drug 10^-6 M) | antagonist action against the histamine-induced contractile response (test drug 10^-7 M)
Cn1c(=O)c2c(ncn2CCCN2CCN(c3ccc(Cl)nn3)CC2)n(C)c1=O [Example 1, 7-[3-[4-(6-chloro-3-pyridazinyl)-1-piperazinyl]propyl]-3,7-dihydro-1,3-dimethyl-1H-purine-2,6-dione] | 50% | –
Cn1c(=O)c2c(ncn2CCCN2CCN(c3cncc(Cl)n3)CC2)n(C)c1=O [Example 2, 7-[3-[4-(6-chloro-2-pyrazinyl)-1-piperazinyl]propyl]-3,7-dihydro-1,3-dimethyl-1H-purine-2,6-dione] | – | 29%
